The source of these data is publication doi:10.1101/334433 (bioRxiv, 2018).

These are yes or no findings as the source states them, for the method shown. Binding seen in cells or lysates may run through a third protein. Some results given as binding are weak or reduced against the parent protein; the word gives no strength. For some assays here: Tags and fused reporters may be left off the sequences shown.

Assay [1] has as its target T1, GST-Peli1 fusion protein (human) (UniProt Q96FA3).
T1 sequence: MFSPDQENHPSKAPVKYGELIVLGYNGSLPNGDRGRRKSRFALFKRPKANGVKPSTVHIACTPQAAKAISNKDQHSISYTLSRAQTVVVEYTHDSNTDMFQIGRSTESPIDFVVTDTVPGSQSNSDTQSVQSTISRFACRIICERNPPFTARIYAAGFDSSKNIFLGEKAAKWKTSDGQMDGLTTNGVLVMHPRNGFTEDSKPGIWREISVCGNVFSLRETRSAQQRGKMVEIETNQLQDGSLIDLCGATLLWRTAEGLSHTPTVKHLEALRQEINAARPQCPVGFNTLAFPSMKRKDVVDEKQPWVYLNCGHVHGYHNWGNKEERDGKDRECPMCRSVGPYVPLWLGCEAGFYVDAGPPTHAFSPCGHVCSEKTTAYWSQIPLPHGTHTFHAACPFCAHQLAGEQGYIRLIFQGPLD
The assay is described as follows: pull-down.

The target of assay [2] is T2, endogenous Peli1 (Pellino 1) (human (endogenous in HaCaT)) (UniProt Q96FA3).
T2 sequence: T1 sequence
The assay is described as follows: co-IP.

B1: endogenous IRF4 (interferon regulatory factor 4) (protein, UniProt Q15306 1-451)
chain: MNLEGGGRGGEFGMSAVSCGNGKLRQWLIDQIDSGKYPGLVWENEEKSIFRIPWKHAGKQDYNREEDAALFKAWALFKGKFREGIDKPDPPTWKTRLRCALNKSNDFEELVERSQLDISDPYKVYRIVPEGAKKGAKQLTLEDPQMSMSHPYTMTTPYPSLPAQQVHNYMMPPLDRSWRDYVPDQPHPEIPYQCPMTFGPRGHHWQGPACENGCQVTGTFYACAPPESQAPGVPTEPSIRSAEALAFSDCRLHICLYYREILVKELTTSSPEGCRISHGHTYDASNLDQVLFPYPEDNGQRKNIEKLLSHLERGVVLWMAPDGLYAKRLCQSRIYWDGPLALCNDRPNKLERDQTCKLFDTQQFLSELQAFAHHGRSLPRFQVTLCFGEEFPDPQRQRKLITAHVEPLLARQLYYFAQQNSGHFLRGYDLPEHISNPEDYHRSIRHSSIQE
As to B1, the binding entry in assay [1] and in assay [2] was “binds” in each case.
